Experimental data published in patent US20250057930A1, “ANAPLASTIC LYMPHOMA KINASE (ALK) CANCER VACCINES AND METHODS OF USE THEREOF” (The Children's Medical Center Corporation, priority 2022, published 2025).

The sequences below were run on NCI-H2228 cells (assay: LC-DIAMS of pan-HLA immunoprecipitations of NCI-H2228). Conditions: MHC-I eluates from NCI-H2228 cells.
Design: species or system human

Sequence	LC-DIAMS
DVIINQVYRRK	not detected
IINQVYRRK	not detected
RPRPSQPSSL	identified
VIINQVYRRK	not detected
